No constants are given. Whether binding was seen depends on the method and setting. In cells and extracts the contact can be indirect. For some of these results: Binding calls can cover weak binding; strength is not graded here. Tags and fused reporters may be left off the sequences shown.
T1: MYC-CORT (6xMYC-tagged CORT, product of cortex) (Drosophila) (UniProt Q960N3)
T1 sequence: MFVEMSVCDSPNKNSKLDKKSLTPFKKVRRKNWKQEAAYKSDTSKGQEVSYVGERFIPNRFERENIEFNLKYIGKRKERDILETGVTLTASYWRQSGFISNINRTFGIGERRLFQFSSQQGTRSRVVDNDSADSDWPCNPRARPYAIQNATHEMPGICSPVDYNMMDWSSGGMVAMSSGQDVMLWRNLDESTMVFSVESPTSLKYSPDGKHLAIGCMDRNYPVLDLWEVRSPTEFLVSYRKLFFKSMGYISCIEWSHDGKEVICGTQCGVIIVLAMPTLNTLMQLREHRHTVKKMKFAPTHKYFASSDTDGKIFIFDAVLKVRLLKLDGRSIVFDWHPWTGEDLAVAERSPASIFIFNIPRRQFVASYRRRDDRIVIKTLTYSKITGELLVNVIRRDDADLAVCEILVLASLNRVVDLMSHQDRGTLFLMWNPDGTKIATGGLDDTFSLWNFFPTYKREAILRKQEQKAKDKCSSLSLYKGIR

Sequences of proteins named here, by UniProt entry; tags and fusion partners are left off. A change or cut given only in a name is not applied to a line headed by its entry.
UniProt Q9VS37: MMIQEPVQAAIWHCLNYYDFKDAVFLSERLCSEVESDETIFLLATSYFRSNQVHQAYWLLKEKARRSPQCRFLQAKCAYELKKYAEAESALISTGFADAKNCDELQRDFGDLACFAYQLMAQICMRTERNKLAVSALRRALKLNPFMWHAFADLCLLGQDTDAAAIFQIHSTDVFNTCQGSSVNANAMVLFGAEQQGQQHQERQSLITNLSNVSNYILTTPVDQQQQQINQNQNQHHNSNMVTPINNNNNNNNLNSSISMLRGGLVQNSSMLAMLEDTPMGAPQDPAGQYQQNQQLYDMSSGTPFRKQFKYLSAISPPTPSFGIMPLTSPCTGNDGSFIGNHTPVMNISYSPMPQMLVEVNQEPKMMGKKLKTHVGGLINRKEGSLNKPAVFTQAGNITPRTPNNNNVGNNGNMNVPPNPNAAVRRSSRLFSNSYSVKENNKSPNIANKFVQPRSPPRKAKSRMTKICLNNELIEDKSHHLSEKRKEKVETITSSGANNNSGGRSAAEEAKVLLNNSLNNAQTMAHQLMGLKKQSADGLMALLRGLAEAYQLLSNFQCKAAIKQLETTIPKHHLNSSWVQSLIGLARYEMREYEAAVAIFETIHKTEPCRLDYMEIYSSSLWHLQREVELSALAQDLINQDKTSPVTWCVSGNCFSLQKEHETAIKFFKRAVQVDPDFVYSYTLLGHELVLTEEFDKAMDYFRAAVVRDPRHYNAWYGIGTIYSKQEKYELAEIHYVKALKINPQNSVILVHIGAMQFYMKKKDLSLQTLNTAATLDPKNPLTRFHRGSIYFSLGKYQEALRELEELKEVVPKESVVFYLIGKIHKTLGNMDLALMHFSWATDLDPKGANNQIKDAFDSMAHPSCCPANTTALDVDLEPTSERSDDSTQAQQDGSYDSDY

T2: PLU-MYC (Drosophila) (UniProt P42570)
T2 sequence: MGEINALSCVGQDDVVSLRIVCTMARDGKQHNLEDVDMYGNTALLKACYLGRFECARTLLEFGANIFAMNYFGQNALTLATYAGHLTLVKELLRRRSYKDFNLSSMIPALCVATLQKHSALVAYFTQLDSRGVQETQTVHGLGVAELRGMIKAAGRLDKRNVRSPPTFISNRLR

B1: MYC-CORT (6xMYC-tagged CORT, product of cortex) (protein, UniProt Q960N3 1-483)
chain: T1 sequence

How the values were obtained:
[1] = target: T1, MYC-CORT (6xMYC-tagged CORT, product of cortex) (Drosophila); assay: co-IP; anti-MYC (9E10) on Protein A Sepharose, whole ovary extracts (homogenized in 25 mM HEPES pH 7.5, 0.4 M NaCl), 2-4 h at 4 °C; washes in IP buffer (100 mM NaCl, 0.1% Triton X-100), one of them with 0.5 M NaCl added; immunoblot
PLU-MYC (Drosophila) = target: T2, PLU-MYC (Drosophila); assay: as above
[2] = target: Cdc27 (Drosophila (endogenous in ovaries)) (UniProt Q9VS37); assay: co-IP; reciprocal: affinity-purified rabbit anti-Cdc27 on Protein A Sepharose, whole ovary extracts from UAS-myc-cort/nos-gal4 females, 2-4 h at 4 °C; immunoblot with anti-MYC

binding [1] | binding (PLU-MYC (Drosophila)) | binding [2] | Molecule
binds | no binding |  | Cdc27 (from UniProt Q9VS37)
no binding |  |  | Morula (MR), the APC2 homolog in Drosophila
 |  | binds | B1

Source: paper PMC2077894
